In paper PMC3723245:
Results are given in words; binding and its absence hold for the method and conditions named. Some results given as binding are weak or reduced against the parent protein; the word gives no strength.

By UniProt entry, the sequences of proteins in these tests, tags left out.
UniProt P27482: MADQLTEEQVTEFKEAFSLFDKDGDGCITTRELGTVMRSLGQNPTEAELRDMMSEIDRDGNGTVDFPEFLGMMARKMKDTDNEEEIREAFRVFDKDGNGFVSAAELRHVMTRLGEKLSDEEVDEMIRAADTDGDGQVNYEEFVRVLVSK

Molecular target: Human calmodulin-like protein CALML3 (human) (UniProt P27482)
Assay: two-hybrid; yeast two-hybrid screen; unpublished observation of two named persons (Bennett and Strehler); no conditions told

- binding: binds
B1: IQ motif containing protein E (protein, UniProt Q6IPM2 1-695)
chain: MFLGTGEPALDTGDDSLSAVTFDSDVETKAKRKAFHKPPPTSPKSPYLSKPRKVASWRSLRTAGSMPLGGRASLTPQKLWLGTAKPGSLTQALNSPLTWEHAWTGVPGGTPDCLTDTFRVKRPHLRRSASNGHVPGTPVYREKEDMYDEIIELKKSLHVQKSDVDLMRTKLRRLEEENSRKDRQIEQLLDPSRGTDFVRTLAEKRPDASWVINGLKQRILKLEQQCKEKDGTISKLQTDMKTTNLEEMRIAMETYYEEVHRLQTLLASSETTGKKPLGEKKTGAKRQKKMGSALLSLSRSVQELTEENQSLKEDLDRVLSTSPTISKTQGYVEWSKPRLLRRIVELEKKLSVMESSKSHAAEPVRSHPPACLASSSALHRQPRGDRNKDHERLRGAVRDLKEERTALQEQLLQRDLEVKQLLQAKADLEKELECAREGEEERREREEVLREEIQTLTSKLQELQEMKKEEKEDCPEVPHKAQELPAPTPSSRHCEQDWPPDSSEEGLPRPRSPCSDGRRDAAARVLQAQWKVYKHKKKKAVLDEAAVVLQAAFRGHLTRTKLLASKAHGSEPPSVPGLPDQSSPVPRVPSPIAQATGSPVQEEAIVIIQSALRAHLARARHSATGKRTTTAASTRRRSASATHGDASSPPFLAALPDPSPSGPQALAPLPGDDVNSDDSDDIVIAPSLPTKNFPV
